PubChem BioAssay AID1259254, NCATS, 2017
Aim: 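Gene knock-downs that lead to re-replication, shown by excess G2 DNA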 (primary screen). System: human HCT116 colorectal cancer cells. Reagent: single siRNA against human genes. Time to read-out: 3 days. Read-out: 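Nuclei stained with Hoechst and imaged; cell-cycle phase assigned by DNA content; G2 share scaled per plate, non-targeting siRNA 0%, GMNN siRNA 100%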. Reading the numbers: G2 robust z-score and G2 cells, % of GMNN control: higher = more G2 cells, more excess DNA replication; raw share of cells in G2: higher = larger share of cells with G2 DNA content. Rule for the call: 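An siRNA counts as active if its G2 robust z-score lies at least 5 MADs above the screen median; here such calls match roughly 38% of GMNN control or more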.
Shown is an unselected part of about 59,000 deposited reagents. Over the whole deposit, about 1,550 (2.6%) were called active. 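G2 share is only a proxy for re-replication; each gene was hit by three separate siRNAs, and active genes were retested.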 Raw values vary from plate to plate and are shown uncorrected. A number with no mark means an inactive call. The numbers tell different reagents against one gene apart. The record does not give: the amount of reagent.

| target | siRNA no. | G2 robust z-score | G2 cells, % of GMNN control | raw share of cells in G2 (%) |
| --- | --- | --- | --- | --- |
| ZNF124 (GeneID 7678) | 1 | -0.0569 | 2.57 | 4.38 |
| ZNF124 (GeneID 7678) | 2 | -1.18 | -5.33 | 3.61 |
| ZNF124 (GeneID 7678) | 3 | 0.316 | 5.19 | 5.51 |
| LOC652608 (GeneID 652608) | 1 | 1.51 | 13.6 | 8.19 |
| LOC652608 (GeneID 652608) | 2 | 0.19 | 4.31 | 4.06 |
| LOC652608 (GeneID 652608) | 3 | -0.732 | -2.18 | 2.38 |
| SLC7A11 (GeneID 23657) | 1 | 3.5 | 27.6 | 13 |
| SLC7A11 (GeneID 23657) | 2 | -0.319 | 0.723 | 6.49 |
| SLC7A11 (GeneID 23657) | 3 | -1.12 | -4.9 | 2.56 |
| SMAD2 (GeneID 4087) | 1 | 1.95 | 16.7 | 12.1 |
| SMAD2 (GeneID 4087) | 2 | 5.03 (active) | 38.4 | 19.4 |
| SMAD2 (GeneID 4087) | 3 | 4.79 | 36.7 | 16.6 |
| AMN (GeneID 81693) | 1 | -0.548 | -0.89 | 3.81 |
| AMN (GeneID 81693) | 2 | 0.871 | 9.1 | 6.15 |
| AMN (GeneID 81693) | 3 | -0.163 | 1.82 | 2.96 |

Reformatted: results already given.
target | siRNA no. | G2 robust z-score | G2 cells, % of GMNN control | raw share of cells in G2 (%)
AMN (GeneID 81693) | 1 | -0.548 | -0.89 | 3.81
AMN (GeneID 81693) | 2 | 0.871 | 9.1 | 6.15
AMN (GeneID 81693) | 3 | -0.163 | 1.82 | 2.96

More records:
| target | siRNA no. | G2 robust z-score | G2 cells, % of GMNN control | raw share of cells in G2 (%) |
| --- | --- | --- | --- | --- |
| SEZ6 (GeneID 124925) | 1 | 1.11 | 10.8 | 8.42 |
| SEZ6 (GeneID 124925) | 2 | -0.0958 | 2.29 | 4.01 |
| SEZ6 (GeneID 124925) | 3 | -0.865 | -3.12 | 0.907 |
| FOXQ1 (GeneID 94234) | 1 | -0.116 | 2.15 | 6.67 |
| FOXQ1 (GeneID 94234) | 2 | 0.124 | 3.84 | 6.61 |
| FOXQ1 (GeneID 94234) | 3 | 0.436 | 6.04 | 6.76 |
| NUAK1 (GeneID 9891) | 1 | -0.45 | -0.197 | 5.54 |
| NUAK1 (GeneID 9891) | 2 | -0.679 | -1.81 | 4.8 |
| NUAK1 (GeneID 9891) | 3 | -0.609 | -1.31 | 3.56 |
| ZNF662 (GeneID 389114) | 1 | -0.626 | -1.44 | 2.6 |
| ZNF662 (GeneID 389114) | 2 | -0.0456 | 2.65 | 4.08 |
| ZNF662 (GeneID 389114) | 3 | -0.634 | -1.49 | 3 |
| GRIA4 (GeneID 2893) | 1 | -1.21 | -5.57 | 3.26 |
| GRIA4 (GeneID 2893) | 2 | -0.928 | -3.56 | 3.58 |
| GRIA4 (GeneID 2893) | 3 | 0.789 | 8.52 | 7.7 |
